Laboratory results reported in article PMC6968712 (Drug Delivery, 2019).

Test: general procedure: Fmoc solid-phase peptide synthesis
Conditions: whole synthesis, analytical RP-HPLC (Waters), C18 column, 5–95% acetonitrile in 0.1% trifluoroacetic acid, scale of the general procedure 0.1 mmol

Substance | final HPLC purity [%]
PEPTIDE1{G.I.G.A.V.L.K.V.L.T.T.G.L.P.A.L.I.S.W.I.K.R.K.R.Q.Q.[am]}$$$$V2.0 | 96
PEPTIDE1{R.P.K.P.Q.Q.F.F.G.L.M.[am]}$$$$V2.0 | 97.3
PEPTIDE1{R.P.K.P.W.Q.W.F.W.L.L.[am]}$$$$V2.0 | 98.8
PEPTIDE1{[FITC].[Ahx].R.P.K.P.Q.Q.F.F.G.L.M.[am]}$$$$V2.0 | 95.3
PEPTIDE1{[Stearoyl].[dR].P.K.P.[dW].Q.[dW].F.[dW].L.L.[am]}$$$$V2.0 | 97
PEPTIDE1{[dR].P.K.P.[dW].Q.[dW].F.[dW].L.L.[am]}$$$$V2.0 | 97.4

Strings that start with PEPTIDE1 are HELM notation: dots part the residues, brackets hold end groups and non-standard residues.
